This passage reports binding results from paper PMC1470463.

These are yes or no findings as the source states them, for the method shown. For some assays here: Binding can be weak; no strength is given. Sequences can lack the tags named with a protein.

The target of test [1] is T1, Bxb1 integrase (gpInt) (mycobacteriophage Bxb1) (UniProt Q9B086).
T1 sequence: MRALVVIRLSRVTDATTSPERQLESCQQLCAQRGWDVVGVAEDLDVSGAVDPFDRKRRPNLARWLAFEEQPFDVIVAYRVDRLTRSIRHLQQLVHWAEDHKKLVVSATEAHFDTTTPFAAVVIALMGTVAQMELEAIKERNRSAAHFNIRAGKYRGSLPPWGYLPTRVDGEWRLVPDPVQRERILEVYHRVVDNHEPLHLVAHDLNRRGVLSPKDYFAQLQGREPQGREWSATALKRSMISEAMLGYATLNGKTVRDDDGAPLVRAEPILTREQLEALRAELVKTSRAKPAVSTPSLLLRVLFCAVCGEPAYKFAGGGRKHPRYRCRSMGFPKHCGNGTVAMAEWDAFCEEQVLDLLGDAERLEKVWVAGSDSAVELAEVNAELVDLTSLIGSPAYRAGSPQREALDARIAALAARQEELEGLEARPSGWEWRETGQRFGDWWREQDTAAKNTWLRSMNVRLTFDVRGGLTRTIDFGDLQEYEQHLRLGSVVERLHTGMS
In words: condition: only with gpInt on ~350-bp attL or attR DNA; gp47 up to 3.56 μM; native gel or EMSA; as a1 but with ~350-bp attL or attR DNA; gpInt 0.072 μM, gp47 0.45-3.56 μM; both purified. Background: In EMSA bound probe runs differently from free probe, usually more slowly.

Test [2] concerns the target T1, Bxb1 integrase (gpInt) (mycobacteriophage Bxb1). The experiment in a line: native gel or EMSA; gpInt and high concentrations of gp47 with shorter (60 bp) attL or attR DNA substrates (Figure S4); both purified.
Test [3] shares this target. In words: native gel or EMSA; α-His antibody supershift of reactions with gpInt, gp47 and attL or attR DNA; antibody added to the premixed sample or preincubated with gp47 for 30 min; 5% native PAGE; both purified.
For test [4] the target is unchanged. In words: native gel or EMSA; gpInt and gp47 with a smaller attB substrate (60 bp) (Figure S4); both purified.
For test [5] the target is unchanged. The experiment in a line: native gel or EMSA; radiolabelled attP or attB DNA (~300-350 bp) with gpInt 0.072 μM and gp47 0.45-3.56 μM; 20 mM Tris-HCl pH 7.5, 10 mM EDTA, 25 mM NaCl, 10 mM spermidine, 1 mM DTT, calf thymus DNA, 25 °C 1 h; 5% native PAGE at 10 °C; gp47 in Complex II confirmed by α-His supershift; gp47 only partially purified (~75%); both purified.

“Bxb1 gp47 with a His6 tag at the N-terminus (mycobacteriophage Bxb1)”: the binding result in test [1] is reported as “no binding”; in test [2], “binds weakly”; in test [3], “binds weakly”; in test [4], “binds”; in test [5] it was “binds”.
